In article PMC8016909:
No constants are given. Whether binding was seen depends on the method and setting. In cells and extracts the contact can be indirect. A yes stands for co-enrichment or nearness to the bait. Other partners may have been found.

Amino acid sequences for entries named in this document (tags omitted).
UniProt O60674: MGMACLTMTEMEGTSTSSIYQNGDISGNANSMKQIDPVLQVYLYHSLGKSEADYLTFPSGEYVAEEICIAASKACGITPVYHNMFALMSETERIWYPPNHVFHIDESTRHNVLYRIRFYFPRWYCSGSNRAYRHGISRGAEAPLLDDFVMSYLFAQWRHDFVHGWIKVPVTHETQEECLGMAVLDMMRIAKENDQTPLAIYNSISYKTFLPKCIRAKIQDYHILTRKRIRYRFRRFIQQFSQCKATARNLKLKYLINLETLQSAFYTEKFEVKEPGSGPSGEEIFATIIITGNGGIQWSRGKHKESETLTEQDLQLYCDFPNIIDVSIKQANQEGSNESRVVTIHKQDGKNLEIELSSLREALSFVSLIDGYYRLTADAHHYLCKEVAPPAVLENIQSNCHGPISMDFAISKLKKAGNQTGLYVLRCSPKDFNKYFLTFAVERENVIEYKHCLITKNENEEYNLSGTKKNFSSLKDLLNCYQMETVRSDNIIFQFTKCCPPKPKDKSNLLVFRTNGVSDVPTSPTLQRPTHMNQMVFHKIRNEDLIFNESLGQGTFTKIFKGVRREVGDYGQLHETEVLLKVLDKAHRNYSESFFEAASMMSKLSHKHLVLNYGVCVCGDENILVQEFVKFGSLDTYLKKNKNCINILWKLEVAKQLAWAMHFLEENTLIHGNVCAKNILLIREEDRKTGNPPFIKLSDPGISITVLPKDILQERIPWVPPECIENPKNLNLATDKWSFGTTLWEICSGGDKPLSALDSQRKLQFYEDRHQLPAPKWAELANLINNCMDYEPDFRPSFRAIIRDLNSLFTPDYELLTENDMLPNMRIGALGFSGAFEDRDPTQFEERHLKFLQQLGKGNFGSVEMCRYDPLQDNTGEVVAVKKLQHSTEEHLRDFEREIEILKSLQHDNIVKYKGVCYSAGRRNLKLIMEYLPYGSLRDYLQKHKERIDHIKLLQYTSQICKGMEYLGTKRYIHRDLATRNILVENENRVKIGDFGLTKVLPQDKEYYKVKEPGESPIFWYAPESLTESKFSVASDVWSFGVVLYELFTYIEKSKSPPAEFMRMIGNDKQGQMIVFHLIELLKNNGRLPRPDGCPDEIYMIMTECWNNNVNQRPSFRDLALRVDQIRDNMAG
UniProt P42224: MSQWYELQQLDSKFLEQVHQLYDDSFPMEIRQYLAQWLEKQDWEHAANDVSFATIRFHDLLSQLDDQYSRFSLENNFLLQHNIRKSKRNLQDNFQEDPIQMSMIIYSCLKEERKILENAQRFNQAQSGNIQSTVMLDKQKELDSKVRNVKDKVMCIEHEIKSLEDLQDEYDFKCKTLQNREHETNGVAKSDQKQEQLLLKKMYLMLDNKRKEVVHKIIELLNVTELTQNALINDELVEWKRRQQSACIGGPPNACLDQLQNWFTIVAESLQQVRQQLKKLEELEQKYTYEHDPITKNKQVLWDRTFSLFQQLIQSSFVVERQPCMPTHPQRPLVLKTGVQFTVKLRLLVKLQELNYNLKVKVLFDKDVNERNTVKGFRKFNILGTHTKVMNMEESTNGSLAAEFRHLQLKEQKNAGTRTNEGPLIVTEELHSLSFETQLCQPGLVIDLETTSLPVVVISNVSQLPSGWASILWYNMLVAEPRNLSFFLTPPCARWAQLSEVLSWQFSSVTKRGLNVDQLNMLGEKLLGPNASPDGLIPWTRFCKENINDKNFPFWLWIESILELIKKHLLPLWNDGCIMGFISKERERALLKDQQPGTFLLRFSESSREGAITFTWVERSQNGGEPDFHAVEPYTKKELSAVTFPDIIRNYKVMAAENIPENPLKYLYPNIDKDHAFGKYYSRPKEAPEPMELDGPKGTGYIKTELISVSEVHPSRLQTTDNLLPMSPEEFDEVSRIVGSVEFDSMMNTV
UniProt P42229: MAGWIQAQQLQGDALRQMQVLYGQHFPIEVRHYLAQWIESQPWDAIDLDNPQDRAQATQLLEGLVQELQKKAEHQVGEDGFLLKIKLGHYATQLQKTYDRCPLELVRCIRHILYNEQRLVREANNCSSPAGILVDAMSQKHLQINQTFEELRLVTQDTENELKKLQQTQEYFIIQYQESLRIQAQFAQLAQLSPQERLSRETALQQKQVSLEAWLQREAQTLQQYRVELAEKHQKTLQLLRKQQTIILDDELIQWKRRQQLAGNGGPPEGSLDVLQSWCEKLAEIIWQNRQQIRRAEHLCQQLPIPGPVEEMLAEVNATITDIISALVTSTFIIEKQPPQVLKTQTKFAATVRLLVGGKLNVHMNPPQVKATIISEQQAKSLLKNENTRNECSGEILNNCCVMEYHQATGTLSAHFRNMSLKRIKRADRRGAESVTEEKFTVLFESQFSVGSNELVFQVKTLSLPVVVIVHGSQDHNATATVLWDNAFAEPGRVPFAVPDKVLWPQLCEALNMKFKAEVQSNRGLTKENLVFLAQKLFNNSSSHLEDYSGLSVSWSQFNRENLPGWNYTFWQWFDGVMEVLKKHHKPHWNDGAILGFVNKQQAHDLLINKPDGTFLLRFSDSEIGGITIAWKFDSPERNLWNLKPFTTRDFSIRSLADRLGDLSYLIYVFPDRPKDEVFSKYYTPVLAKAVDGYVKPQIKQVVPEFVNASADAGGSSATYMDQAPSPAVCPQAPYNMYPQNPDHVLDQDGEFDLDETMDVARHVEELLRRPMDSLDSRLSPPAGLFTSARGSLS

Molecular target: His-tagged JAK2 (His-hJAK2) expressed in HEK293T cells (human) (UniProt O60674)
Test: affinity purification with mass spectrometry; His-tagged JAK2 immunoprecipitated from HEK293T cells, compared with cells expressing empty vector; gel slices, trypsin, Mascot search against human UniProt

binding	Substance
binds	STAT1 (from UniProt P42224 1-750)
binds	STAT5A (from UniProt P42229 1-794)
